From patent publication EP0012543A1, “Compositions containing 1,3-dioxolanes as emollients” (IMPERIAL CHEMICAL INDUSTRIES PLC, priority 1978, dated 1980)
At least one compound was matched to its structure with a doubt left.

Test system: skin
Test: Evaluation of emollients: test lotion rated by a panel
Format: in vivo, persons
Conditions: 0-10 scale; five characteristics (ease of application, moistness, smoothness, greasiness, tackiness) each rated 0-2; mean of 10 subjects; 7.0 parts emollient in lotion aged 48 hours, rubbed into inner arm
Method: The following basic composition is prepared:
The emollient to be tested is stirred with the other ingredients of the oil phase while heating to 70°C. Meanwhile, ingredients of the water phase are stirred and heated to 72°C. The water phase is then added gradually to the stirred oil phase, and the total mixture is stirred while it cools to room temperature. The emulsion (lotion or cream) is allowed to age for 48 hours at room temperature before evaluation.
For evaluation the subject applies a small amount of the lotion to the inner arm, rubs it into the skin and rates five characteristics: ease of application, moistness, smoothness, greasiness and tackiness. Numerical values are given as follows: poor = 0, average or "not sure" = 1, and good = 2. This is done by an experienced panel of 10 persons and ratings for each emollient are the mean for the 10 subjects. With this system, the highest possible rating is 10; the average emollient has a rating of 5; and the worst score is zero. Most of the emollients of the present invention have ratings well above 5.
Specific examples of acetals of fatty aldehydes are listed following under the name of the polyol. The aldehyde in each case was the mixed C13 and C15 aldehyde used in Example 1.

For `CC(C)(CO)CO` [Neopentyl glycol], the “Emollient Rating” value was 7.7.
